Laboratory results reported in US20240239892A1 (SUZHOU KANOVA BIOPHARMACEUTICAL, published 2024).
These are yes or no findings as the source states them, for the method shown. Some results given as binding are weak or reduced against the parent protein; the word gives no strength.

By UniProt entry, the sequences of proteins in these tests, tags left out. Residues count along the entry.
UniProt Q15116, residues 21-167: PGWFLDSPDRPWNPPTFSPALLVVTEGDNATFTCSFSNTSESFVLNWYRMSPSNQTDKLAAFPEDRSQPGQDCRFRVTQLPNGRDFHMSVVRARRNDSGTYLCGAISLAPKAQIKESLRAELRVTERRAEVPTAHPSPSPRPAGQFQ

Biological target: PD-1 (analyte of the SPR assay of Example 3) (human) (UniProt Q15116)
Assay: SPR off-rate ranking (Biacore 8K)

Row | Binder | binding
1 | VH6 + VL1 (antibody, human IgG1, kappa, V domains shown, Humanized full-length IgG expressed in HEK293; For SPR it was captured from culture medium through its Fc; also called HC1 + LC1) VH: EVQLVESGGGLVQPGGSLRLSCAASGFTFSSYGMSWVRQAPGKRLEWVAIISGGGRDIYYLDSVKGRFTISRDNSKNTLYLQMNSLRAEDTAVYYCSSPIYDAYSFAYWGQGTLVTVSS VL: EIVMTQSPATLSVSPGERATLSCRASQTISNNLHWYQQKPGQAPRLLIYYASQSISGIPARFSGSGSGTEFTLTISSLQSEDFAVYYCQQSYSWPLTFGGGTKLEIKR | binds
2 | VH6 + VL6 (antibody, human IgG1, kappa, V domains shown, Humanized full-length IgG expressed in HEK293; also called HC1 + LC2) VH: EVQLVESGGGLVQPGGSLRLSCAASGFTFSSYGMSWVRQAPGKRLEWVAIISGGGRDIYYLDSVKGRFTISRDNSKNTLYLQMNSLRAEDTAVYYCSSPIYDAYSFAYWGQGTLVTVSS VL: EIVLTQSPATLSVSPGERATLSCRASQTISNNLHWYHQKPGQAPRLLIKYASQSISGIPSRFSGSGSGTDFTLTISSLQSEDFAVYFCQQSYSWPLTFGGGTKLEIKR | binds
3 | VH7 + VL1 (antibody, human IgG1, kappa, V domains shown, Humanized full-length IgG expressed in HEK293; also called HC2 + LC1) VH: EVQLVESGGGLVQPGGSLRLSCAASGFTFSSYGMSWVRQAPGKGLEWVAIISGGGRDIYYLDSVKGRFTISRDNSKNNLYLQMNSLRAEDTAVYYCSSPIYDAYSFAYWGQGTLVTVSS VL: EIVMTQSPATLSVSPGERATLSCRASQTISNNLHWYQQKPGQAPRLLIYYASQSISGIPARFSGSGSGTEFTLTISSLQSEDFAVYYCQQSYSWPLTFGGGTKLEIKR | binds
4 | anti-PD-1 antibody VH7+VL6 (antibody, human IgG1, kappa, V domains shown, also called HC2 + LC2) VH: EVQLVESGGGLVQPGGSLRLSCAASGFTFSSYGMSWVRQAPGKGLEWVAIISGGGRDIYYLDSVKGRFTISRDNSKNNLYLQMNSLRAEDTAVYYCSSPIYDAYSFAYWGQGTLVTVSS VL: EIVLTQSPATLSVSPGERATLSCRASQTISNNLHWYHQKPGQAPRLLIKYASQSISGIPSRFSGSGSGTDFTLTISSLQSEDFAVYFCQQSYSWPLTFGGGTKLEIKR | binds
